Results from the supplement of paper PMC12823440, “Inhibitors supercharge kinase turnover through native proteolytic circuits” (Nature, 2025).
Where a name gives a salt, the structure may show the parent alone. The list shows a part of the results. The calls rarely recur for the same compound in another form.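 Kinases were expressed as nanoluciferase fusions in K562 cells and luminescence was read every 4 h between 2 and 18 h as percent of control, DMSO set to 100% and a positive control to 0%. A time point counts as decreased when the signal drops significantly (2 sigma). The hit call is the authors' own, does not follow from the count of time points alone, and its rule is not shown.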

Chains of the proteins cited; added tags and fusions are not shown. Lines headed by an entry give the natural chain unless they say otherwise; changes in a name come on top.
UniProt Q01974, whole entry: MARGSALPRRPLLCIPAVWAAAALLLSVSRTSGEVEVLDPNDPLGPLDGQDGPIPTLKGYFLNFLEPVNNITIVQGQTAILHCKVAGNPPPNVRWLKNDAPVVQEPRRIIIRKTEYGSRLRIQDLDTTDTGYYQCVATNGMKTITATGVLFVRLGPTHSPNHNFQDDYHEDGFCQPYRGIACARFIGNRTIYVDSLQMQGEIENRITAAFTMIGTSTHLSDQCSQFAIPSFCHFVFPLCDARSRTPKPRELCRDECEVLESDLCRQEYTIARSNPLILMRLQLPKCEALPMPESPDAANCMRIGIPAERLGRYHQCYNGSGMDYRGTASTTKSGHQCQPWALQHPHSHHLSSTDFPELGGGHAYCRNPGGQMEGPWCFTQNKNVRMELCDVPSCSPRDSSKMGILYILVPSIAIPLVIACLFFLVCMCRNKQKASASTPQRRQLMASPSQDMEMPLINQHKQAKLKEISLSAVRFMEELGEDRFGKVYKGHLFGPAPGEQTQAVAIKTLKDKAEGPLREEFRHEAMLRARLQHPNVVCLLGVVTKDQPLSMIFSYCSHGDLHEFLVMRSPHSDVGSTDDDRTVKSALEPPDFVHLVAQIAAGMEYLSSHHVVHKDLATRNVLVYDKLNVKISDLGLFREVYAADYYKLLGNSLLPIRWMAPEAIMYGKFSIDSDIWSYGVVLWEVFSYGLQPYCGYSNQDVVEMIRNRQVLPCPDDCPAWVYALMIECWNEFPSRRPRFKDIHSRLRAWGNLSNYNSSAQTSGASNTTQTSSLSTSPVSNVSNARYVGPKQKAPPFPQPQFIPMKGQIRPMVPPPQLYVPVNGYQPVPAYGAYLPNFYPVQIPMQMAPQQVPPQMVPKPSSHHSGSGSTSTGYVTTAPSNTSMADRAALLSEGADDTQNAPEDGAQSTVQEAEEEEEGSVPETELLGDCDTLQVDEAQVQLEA
UniProt Q15418, whole entry: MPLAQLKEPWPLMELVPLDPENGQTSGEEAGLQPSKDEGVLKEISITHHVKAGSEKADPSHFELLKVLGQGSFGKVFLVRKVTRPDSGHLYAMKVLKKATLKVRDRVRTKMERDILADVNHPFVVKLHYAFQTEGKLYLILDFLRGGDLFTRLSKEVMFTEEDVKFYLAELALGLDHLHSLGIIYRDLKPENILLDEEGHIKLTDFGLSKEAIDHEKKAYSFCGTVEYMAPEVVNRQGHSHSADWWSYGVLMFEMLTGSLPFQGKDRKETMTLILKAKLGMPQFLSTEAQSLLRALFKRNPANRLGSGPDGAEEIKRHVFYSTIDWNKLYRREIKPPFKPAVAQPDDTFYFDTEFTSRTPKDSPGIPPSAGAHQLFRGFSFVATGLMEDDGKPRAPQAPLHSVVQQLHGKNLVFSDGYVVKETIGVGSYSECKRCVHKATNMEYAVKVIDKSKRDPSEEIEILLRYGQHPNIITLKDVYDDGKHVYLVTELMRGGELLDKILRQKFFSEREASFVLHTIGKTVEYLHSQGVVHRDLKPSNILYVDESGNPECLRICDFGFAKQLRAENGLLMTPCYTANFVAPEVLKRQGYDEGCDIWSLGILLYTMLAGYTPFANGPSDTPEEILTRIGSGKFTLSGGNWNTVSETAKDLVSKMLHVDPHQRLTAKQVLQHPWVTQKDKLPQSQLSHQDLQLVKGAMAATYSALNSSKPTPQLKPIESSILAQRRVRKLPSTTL
UniProt Q9NYA1, whole entry: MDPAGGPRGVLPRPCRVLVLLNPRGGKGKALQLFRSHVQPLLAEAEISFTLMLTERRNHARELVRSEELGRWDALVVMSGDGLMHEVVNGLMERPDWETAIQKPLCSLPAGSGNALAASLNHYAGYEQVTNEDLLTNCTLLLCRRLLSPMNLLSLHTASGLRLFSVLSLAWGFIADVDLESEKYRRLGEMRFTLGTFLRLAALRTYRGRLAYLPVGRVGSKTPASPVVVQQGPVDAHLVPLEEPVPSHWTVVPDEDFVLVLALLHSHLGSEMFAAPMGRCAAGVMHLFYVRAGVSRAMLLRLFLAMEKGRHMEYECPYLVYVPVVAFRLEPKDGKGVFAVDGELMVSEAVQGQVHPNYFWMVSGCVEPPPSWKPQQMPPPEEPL
UniProt Q9Y6E0: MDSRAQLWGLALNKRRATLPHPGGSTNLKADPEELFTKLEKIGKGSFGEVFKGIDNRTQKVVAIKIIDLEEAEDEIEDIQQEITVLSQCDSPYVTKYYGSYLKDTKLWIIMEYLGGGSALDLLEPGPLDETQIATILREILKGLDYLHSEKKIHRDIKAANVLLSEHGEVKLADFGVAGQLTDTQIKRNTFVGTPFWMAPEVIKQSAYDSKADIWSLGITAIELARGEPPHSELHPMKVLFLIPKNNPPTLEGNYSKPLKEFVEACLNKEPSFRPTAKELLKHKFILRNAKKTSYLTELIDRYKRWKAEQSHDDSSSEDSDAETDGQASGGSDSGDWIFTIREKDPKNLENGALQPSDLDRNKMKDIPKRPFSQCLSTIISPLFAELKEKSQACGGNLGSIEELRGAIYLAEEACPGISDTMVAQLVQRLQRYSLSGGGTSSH
UniProt Q15208: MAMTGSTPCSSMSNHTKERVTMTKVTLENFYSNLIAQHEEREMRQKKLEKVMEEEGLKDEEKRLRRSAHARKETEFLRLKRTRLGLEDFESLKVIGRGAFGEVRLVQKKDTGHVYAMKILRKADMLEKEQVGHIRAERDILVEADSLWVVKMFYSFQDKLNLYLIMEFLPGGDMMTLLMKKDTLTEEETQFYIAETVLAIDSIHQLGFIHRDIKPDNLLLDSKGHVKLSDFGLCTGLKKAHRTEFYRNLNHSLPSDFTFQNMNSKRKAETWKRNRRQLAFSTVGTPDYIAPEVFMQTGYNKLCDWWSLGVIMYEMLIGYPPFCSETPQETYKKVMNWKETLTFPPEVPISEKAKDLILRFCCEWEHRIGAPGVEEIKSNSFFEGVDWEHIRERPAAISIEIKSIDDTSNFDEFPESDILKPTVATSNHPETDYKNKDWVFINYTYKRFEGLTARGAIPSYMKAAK
UniProt P42680: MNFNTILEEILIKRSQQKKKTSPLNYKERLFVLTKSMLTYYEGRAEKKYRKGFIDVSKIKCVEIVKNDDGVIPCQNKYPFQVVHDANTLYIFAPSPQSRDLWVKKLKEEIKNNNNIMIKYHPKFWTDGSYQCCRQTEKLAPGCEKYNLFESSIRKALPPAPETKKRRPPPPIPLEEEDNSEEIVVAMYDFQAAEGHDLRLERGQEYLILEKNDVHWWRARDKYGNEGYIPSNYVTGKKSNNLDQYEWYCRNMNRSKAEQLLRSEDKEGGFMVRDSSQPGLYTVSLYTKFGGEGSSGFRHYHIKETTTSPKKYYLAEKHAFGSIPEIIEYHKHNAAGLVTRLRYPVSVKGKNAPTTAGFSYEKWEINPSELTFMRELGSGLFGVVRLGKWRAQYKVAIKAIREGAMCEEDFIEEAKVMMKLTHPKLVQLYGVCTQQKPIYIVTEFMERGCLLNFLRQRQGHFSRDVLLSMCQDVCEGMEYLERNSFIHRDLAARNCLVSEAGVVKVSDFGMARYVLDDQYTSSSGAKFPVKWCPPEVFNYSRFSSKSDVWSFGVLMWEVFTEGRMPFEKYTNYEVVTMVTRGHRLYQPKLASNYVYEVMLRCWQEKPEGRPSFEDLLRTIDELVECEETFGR
UniProt P29597: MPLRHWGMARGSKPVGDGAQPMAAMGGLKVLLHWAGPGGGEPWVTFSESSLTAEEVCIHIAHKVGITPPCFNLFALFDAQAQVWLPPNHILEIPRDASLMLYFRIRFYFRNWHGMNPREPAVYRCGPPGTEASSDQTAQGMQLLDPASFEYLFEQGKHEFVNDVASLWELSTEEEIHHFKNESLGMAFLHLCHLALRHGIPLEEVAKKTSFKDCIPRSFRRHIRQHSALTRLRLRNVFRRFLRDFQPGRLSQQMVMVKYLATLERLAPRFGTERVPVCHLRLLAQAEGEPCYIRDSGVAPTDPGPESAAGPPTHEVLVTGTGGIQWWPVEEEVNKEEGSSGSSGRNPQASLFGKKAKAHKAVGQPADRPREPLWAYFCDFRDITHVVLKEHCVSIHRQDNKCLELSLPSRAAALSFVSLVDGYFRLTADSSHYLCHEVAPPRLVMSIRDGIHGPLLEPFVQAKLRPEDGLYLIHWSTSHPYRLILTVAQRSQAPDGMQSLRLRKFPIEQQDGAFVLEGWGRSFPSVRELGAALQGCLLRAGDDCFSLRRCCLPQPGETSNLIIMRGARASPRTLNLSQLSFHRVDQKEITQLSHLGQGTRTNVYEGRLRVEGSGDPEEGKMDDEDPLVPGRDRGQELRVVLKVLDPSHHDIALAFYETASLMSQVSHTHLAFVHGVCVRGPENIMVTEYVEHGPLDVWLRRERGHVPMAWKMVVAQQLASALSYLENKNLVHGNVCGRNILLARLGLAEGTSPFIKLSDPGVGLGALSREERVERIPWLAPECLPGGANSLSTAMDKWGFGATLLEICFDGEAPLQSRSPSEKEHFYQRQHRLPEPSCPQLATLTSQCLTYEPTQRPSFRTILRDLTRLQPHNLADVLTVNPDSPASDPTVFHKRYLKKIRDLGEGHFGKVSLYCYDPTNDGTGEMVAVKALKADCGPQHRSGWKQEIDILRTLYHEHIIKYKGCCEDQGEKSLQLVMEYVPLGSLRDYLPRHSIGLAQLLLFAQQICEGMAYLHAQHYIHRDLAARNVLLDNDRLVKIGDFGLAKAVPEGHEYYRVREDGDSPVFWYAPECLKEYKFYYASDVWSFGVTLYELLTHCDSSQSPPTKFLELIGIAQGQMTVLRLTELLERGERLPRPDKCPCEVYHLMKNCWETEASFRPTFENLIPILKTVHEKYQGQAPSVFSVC
UniProt Q6PHR2: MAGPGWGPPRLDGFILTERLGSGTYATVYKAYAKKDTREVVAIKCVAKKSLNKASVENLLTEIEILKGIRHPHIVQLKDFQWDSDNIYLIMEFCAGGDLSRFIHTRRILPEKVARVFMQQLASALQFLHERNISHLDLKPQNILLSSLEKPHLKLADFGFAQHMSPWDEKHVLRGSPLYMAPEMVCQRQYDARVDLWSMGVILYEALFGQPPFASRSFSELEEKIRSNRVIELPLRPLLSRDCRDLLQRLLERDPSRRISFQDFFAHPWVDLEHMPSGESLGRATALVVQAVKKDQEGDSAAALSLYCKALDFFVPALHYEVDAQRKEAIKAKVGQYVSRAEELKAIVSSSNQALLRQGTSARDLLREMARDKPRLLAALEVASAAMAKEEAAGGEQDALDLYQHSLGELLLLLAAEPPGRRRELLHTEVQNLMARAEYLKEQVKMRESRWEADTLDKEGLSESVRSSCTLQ

Columns and labels:
Assay in all cases: number of time points (of 5) at which kinase-Nluc abundance scored as decreased, DMSO-normalised (count); higher = more persistent destabilization
Details in all cases: K562; 2-18 h
ROR2 = ROR2 (UniProt Q01974)
RPS6KA1 = RPS6KA1 (UniProt Q15418)
SPHK1 = SPHK1 (UniProt Q9NYA1)
SRC = SRC (UniProt P12931)
STK24 = STK24 (UniProt Q9Y6E0)
STK38 = STK38 (UniProt Q15208)
SYK = SYK (UniProt P43405)
TEC = TEC (UniProt P42680)
TYK2 = TYK2 (UniProt P29597)
ULK3 = ULK3 (UniProt Q6PHR2)

Measured: number of time points

Cn1c(=O)c(Oc2ccc(F)cc2F)cc2cnc(NC(CCO)CCO)nc21 [Pamapimod] (10 µM)
0: ROR2 | RPS6KA1 | SPHK1 | SRC | STK24 | STK38 | SYK | TEC | TYK2 | ULK3

C[C@H](CC[C@@H](O)C(C)(C)O)[C@H]1CC[C@@]2(C)[C@@H]3CC=C4[C@@H](CC[C@H](O)C4(C)C)[C@]3(C)[C@H](O)C[C@]12C [Mogrol] (10 µM)
0: ROR2 | RPS6KA1 | SPHK1 | SRC | STK24 | STK38 | SYK | TEC | TYK2 | ULK3

CNC(=O)c1c(C)oc2cc(Oc3ncnc4cc(OC)c(OC)cc34)ccc12 [Fruquintinib] (10 µM)
0: ROR2 | RPS6KA1 | SPHK1 | SRC | STK24 | STK38 | SYK | TEC | TYK2 | ULK3

COC(=O)[C@]1(C)CC[C@]2(C(=O)O[C@@H]3O[C@H](CO)[C@@H](O)[C@H](O)[C@H]3O)CC[C@]3(C)C(=CC[C@@H]4[C@@]5(C)C[C@H](O)[C@H](O[C@@H]6OC[C@@H](O[C@@H]7O[C@H](CO)[C@@H](O)[C@H](O)[C@H]7O)[C@H](O)[C@H]6O)[C@@](C)(CO)C5CC[C@]43C)[C@H]2C1 (stereo not given in full) [Esculentoside H] (10 µM)
0: ROR2 | RPS6KA1 | SPHK1 | SRC | STK24 | STK38 | SYK | TEC | TYK2 | ULK3

C=CC(=O)N1CCC[C@@H](n2c(=O)n(-c3ccc(Oc4ccccc4)cc3)c3c(N)nccc32)C1 [Tolebrutinib] (10 µM)
0: ROR2 | RPS6KA1 | SPHK1 | SRC | STK24 | STK38 | SYK | TEC | TYK2 | ULK3

O=C(Nc1cc(Cl)cc(Cl)c1)Nc1cc(Cl)cc(Cl)c1 (10 µM)
0: ROR2 | RPS6KA1 | SPHK1 | SRC | STK24 | STK38 | SYK | TEC | TYK2 | ULK3

CCS(=O)(=O)c1ccc(Oc2cc(O[C@@H](C)CO)cc(C(=O)Nc3ccn(C)n3)c2)cn1 (10 µM)
0: ROR2 | RPS6KA1 | SPHK1 | SRC | STK24 | STK38 | SYK | TEC | TYK2 | ULK3

CC(C)(C)S(=O)(=O)c1ccc2nccc(Nc3n[nH]c4ccc(F)cc34)c2c1 (10 µM)
0: ROR2 | RPS6KA1 | SPHK1 | SRC | STK24 | STK38 | SYK | TEC | TYK2 | ULK3

CC(C)n1cnnc1-c1cccc(NC(=O)c2cc3ccc(F)cc3[nH]2)n1 (2.5 µM)
4: TYK2
3: TEC | ULK3
0: ROR2 | RPS6KA1 | SPHK1 | SRC | STK24 | STK38 | SYK

O=C(N=c1sccn1Cc1ccccc1)c1c[nH]c2ncccc12 (10 µM)
0: ROR2 | RPS6KA1 | SPHK1 | SRC | STK24 | STK38 | SYK | TEC | TYK2 | ULK3

O=C(CCc1ccc2n1[B-](F)(F)[N+]1=C(c3ccc[nH]3)C=CC1=C2)ON1C(=O)CCC1=O [Py-BODIPY-NHS ester] (2.5 µM)
0: ROR2 | RPS6KA1 | SPHK1 | SRC | STK24 | STK38 | SYK | TEC | TYK2 | ULK3

CC(=O)Nc1nc(C)c(-c2ccc(Cl)c(S(=O)(=O)NCCO)c2)s1 (10 µM)
0: ROR2 | RPS6KA1 | SPHK1 | SRC | STK24 | STK38 | SYK | TEC | TYK2 | ULK3

Cc1c(C(=O)Nc2ccc(Oc3ccnc4cc(OCC(C)(C)O)ccc34)c(F)c2)c(=O)n(-c2ccccc2)n1C [Ningetinib Tosylate] (10 µM)
1: SPHK1
3: TYK2 | ULK3
0: ROR2 | RPS6KA1 | SRC | STK24 | STK38 | SYK | TEC

CS(=O)(=O)N1CCN(Cc2cn3cc(-c4cnc(N)nc4)nc(N4CCOCC4)c3n2)CC1 (10 µM)
0: ROR2 | RPS6KA1 | SRC | STK24 | STK38 | SYK | TEC | TYK2 | ULK3
3: SPHK1

CC(C)c1cnn2c(NCc3ccccc3)cc(NCCCCCCN)nc12 [BS-181 (hydrochloride)] (10 µM)
0: ROR2 | RPS6KA1 | SPHK1 | SRC | STK24 | STK38 | SYK | TEC | TYK2 | ULK3

CC(=O)c1cc(O)ccc1O [2,5-Dihydroxyacetophenone] (10 µM)
0: ROR2 | RPS6KA1 | SPHK1 | SRC | STK24 | STK38 | SYK | TEC | TYK2 | ULK3

COc1ccc(C(=O)c2cn(C(C)C)c3ncnc(N)c23)cc1NC(=O)Nc1ccc(Cl)cc1Cl (10 µM)
0: ROR2 | RPS6KA1 | SPHK1 | SRC | STK24 | STK38 | SYK | TEC | TYK2 | ULK3

CN(C/C=C/C(=O)Nc1ccc(C(=O)Nc2cccc(Nc3ncc(Cl)c(-c4c[nH]c5ccccc45)n3)c2)cc1)CCCNC(=O)NCCOCCOCCOCCNC(=O)CCCC[C@@H]1SC[C@@H]2NC(=O)N[C@@H]21 (2.5 µM)
0: ROR2 | RPS6KA1 | SRC | STK24 | STK38 | SYK | TEC | ULK3
3: TYK2
1: SPHK1

Cc1cc([N+](=O)[O-])c(NS(=O)(=O)c2cccc(C(=O)O)c2)cc1-c1cccnc1 [Alofanib] (10 µM)
0: ROR2 | RPS6KA1 | SPHK1 | SRC | STK24 | STK38 | SYK | TEC | TYK2 | ULK3

Nc1n[nH]c(N)c1N=Nc1ccc(O)cc1 (10 µM)
0: ROR2 | RPS6KA1 | SPHK1 | SRC | STK24 | STK38 | SYK | TEC | TYK2 | ULK3

COc1c(OCCCN2CCOCC2)ccc2c3n(c(=NC(=O)c4cnc(N)nc4)nc12)CCN3 [Copanlisib (dihydrochloride)] (10 µM)
1: SPHK1 | SYK
0: ROR2 | RPS6KA1 | SRC | STK24
3: TEC
4: TYK2 | ULK3
2: STK38

C=CC(=O)N[C@H]1CCOC[C@H]1Nc1ncc2cc(-c3c(Cl)c(OC)cc(OC)c3Cl)ccc2n1 [Fisogatinib] (10 µM)
0: ROR2 | RPS6KA1 | SPHK1 | SRC | STK24 | STK38 | SYK | TEC | TYK2 | ULK3

O=C(O)[C@]1(Cc2cccc(Nc3nccs3)n2)CC[C@@H](Oc2cccc(Cl)c2F)CC1 (2.5 µM)
2: TEC | TYK2 | ULK3
0: ROR2 | RPS6KA1 | SPHK1 | SRC | STK24 | STK38 | SYK

CNC(=O)c1ccc(-c2cnc3ncc(Cc4ccc5ncccc5c4)n3n2)cc1F [Capmatinib] (10 µM)
0: ROR2 | RPS6KA1 | SPHK1 | SRC | STK24 | STK38 | SYK | TEC | TYK2 | ULK3

C[C@H](Nc1ccc2c(c1)OCCn1cc(N3C(=O)OC[C@H]3C(F)F)nc1-2)C(N)=O (10 µM)
0: ROR2 | RPS6KA1 | SPHK1 | SRC | STK24 | STK38 | SYK | TEC | TYK2 | ULK3

O=C(Nc1nccs1)C(c1cc(F)ccc1O)N1Cc2ccc(-c3ccc(N4CCNCC4)cc3)cc2C1=O (racemic) (10 µM)
0: ROR2 | RPS6KA1 | SPHK1 | SRC | STK24 | STK38 | SYK | TEC | TYK2 | ULK3

CCc1nc(C(N)=O)c(Nc2ccc(N3CCC(N4CCN(C)CC4)CC3)c(OC)c2)nc1NC1CCC(OC)CC1 (stereo not given) [EML4-ALK kinase inhibitor 1] (2.5 µM)
0: ROR2 | RPS6KA1 | SPHK1 | SRC | STK24 | STK38 | SYK | TEC | TYK2 | ULK3

CC(C)(C)c1ccc(C(=O)Nc2cn3cc(-n4ccnc4)ccc3n2)cc1 (10 µM)
0: ROR2 | RPS6KA1 | SPHK1 | SRC | STK24 | STK38 | SYK | TEC | TYK2 | ULK3

C[C@H]1CNC(=O)c2cnn3ccc(nc23)N[C@H](C)c2cc(F)ccc2O1 [Repotrectinib] (2.5 µM)
0: ROR2 | RPS6KA1 | SRC | STK24 | STK38 | SYK | TEC
2: ULK3
1: SPHK1 | TYK2

C=CC(=O)Nc1cccc(Oc2nc(Nc3ccc(N4CCN(C)CC4)cc3)nc3ccsc23)c1 [Olmutinib] (2.5 µM)
0: ROR2 | RPS6KA1 | SPHK1 | SRC | STK24 | STK38 | SYK | TEC | TYK2 | ULK3

COc1cc2nccc(Oc3ccc(NC(=O)Nc4ccc(F)cc4F)c(F)c3)c2cc1OC (10 µM)
1: TYK2
0: ROR2 | RPS6KA1 | SPHK1 | SRC | STK24 | STK38 | SYK | TEC | ULK3

C[C@@H]1CN(CC(=O)Nc2ccc3c(c2)Cc2cccc(-c4cc(=O)cc(N5CCOCC5)o4)c2S3)C[C@H](C)O1 (2.5 µM)
0: ROR2 | RPS6KA1 | SPHK1 | SRC | STK24 | STK38 | SYK | TEC | TYK2 | ULK3

C[C@@H](N)COc1ccc(-c2cnc3ccc(N[C@H](C)c4cccc(F)c4)nn23)cc1 [Taletrectinib] (2.5 µM)
0: ROR2 | RPS6KA1 | SPHK1 | SRC | STK24 | STK38 | SYK | TEC | TYK2 | ULK3

O=c1cc(-c2ccc(O)cc2)oc2cc(O)c([C@@H]3O[C@H](CO)[C@@H](O)[C@H](O)[C@H]3O)c(O)c12 [Isovitexin] (10 µM)
0: ROR2 | RPS6KA1 | SPHK1 | SRC | STK24 | STK38 | SYK | TEC | TYK2 | ULK3

CS(=O)(=O)N1CCc2c(-c3cnc(N)nc3)nc(N3CCOCC3)nc21 (10 µM)
0: ROR2 | RPS6KA1 | SPHK1 | SRC | STK24 | STK38 | SYK | TEC | TYK2 | ULK3

CNC(=O)c1nnc(NC(=O)C2CC2)cc1Nc1cccc(-c2ncn(C)n2)c1OC [Deucravacitinib] (10 µM)
0: ROR2 | RPS6KA1 | SPHK1 | SRC | STK24 | STK38 | SYK | TEC | TYK2 | ULK3
